Measurements: patent publication US10329325 (dated 2019)

Assay: general procedure: solution-phase peptide synthesis; BOP, hydroxybenzotriazole

Row | Substance | step yield (coupling step) [% yield] | step yield (late stage modification step) [% yield]
1 | (S)—N—((S)-1-(((2R,4S)-1,2-dihydroxy-2,6-dimethyl-3-oxoheptan-4-yl)amino)-1-oxo-3-phenylpropan-2-yl)-4-methyl-2-((S)-2-(2-morpholinoacetamido)-4-phenylbutanamido)pentanamide | 40 | –
2 | (4S,7S,10S,13S,15R)-10-benzyl-15-hydroxy-7,13-diisobutyl-15-methyl-1-morpholino-2,5,8,11,14-pentaoxo-4-phenethyl-3,6,9,12-tetraazahexadecan-16-yl methanesulfonate | – | 90
